Experimental data from US10335503B2, “Compound that specifically binds to AMPA receptor” (Public University Corporation Yokohama City University, priority 2015, dated 2019).
For at least one compound, name, drawing or mass did not settle the structure.

Tested on: K Channel SKCa
Test: Receptor binding panel: K Channel SKCa
Details: Positive substance, concentration not given

With `CC(C)C[C@@H]1NC(=O)[C@H](C)NC(=O)[C@H]([C@@H](C)O)NC(=O)[C@H](CCC(=O)O)NC(=O)[C@@H]2CCCN2C(=O)[C@H](C)NC(=O)[C@H](CCCCN)NC(=O)[C@@H]2CSSC[C@@H](C(=O)N[C@@H](CCC(N)=O)C(=O)N[C@@H](CCC(N)=O)C(=O)N[C@@H](Cc3cnc[nH]3)C(N)=O)NC(=O)[C@H](CCCNC(=N)N)NC(=O)[C@H](CCCNC(=N)N)NC(=O)[C@H](C)NC(=O)[C@H](CSSC[C@H](N)C(=O)N[C@@H](CC(N)=O)C(=O)N2)NC1=O` [Apamin, reference compound] the “Inhibition (%)” value was 99.94%.
